# The list shows only some results of the screen, not a fair sample: it gathers tests that were run many times, whatever their T/C, doses with no T/C, and many T/C values between a quarter and a half above the control. Other doses and runs of a compound stand elsewhere. T/C gives the treated animals as a percentage of the vehicle group. Some doses have a count of surviving animals in place of a T/C: the source files T/C as zero there, which appears to mark a toxic dose or a test without result, not a measured value. Some doses without a T/C left all or most animals alive at the check, yet need not have been tolerated: the source hardly ever lists a survival T/C far under the control, and the zero likely stands for such cases as well. Survivors were counted at the toxicity check, usually on the fifth day, unless a day is given; later deaths do not show. Schedule codes are those of the source, read here as Q, the interval in days (D) or hours (H), X, the number of doses. Some schedule codes hold Z or #, which are not explained here. For survival time, the PubChem record calls one and a half times the control and up active, and a quarter to a half above the control has no call in these data; cut-offs in other NCI protocols can differ. Some entries hold several experiments; the values are given in rising order. Some T/C values are followed by the survivors on the day toxicity was checked, most often the fifth; where none is given, no animal had died by that day.
# Tested on: L1210 leukemia ip in BDF1 mice, survival T/C
# Assay: NCI In Vivo Anticancer Drug Screen. Data for tumor model L1210 Leukemia (intraperitoneal) in B6D2F1 (BDF1) mice
# Details: T/C endpoint: mean survival time, higher T/C = longer survival
# [1] = dose: 400.0 mg/kg/injection, schedule: Q04DX003 (ip), vehicle: Klucel (hydroxypropylcellulose) (HPC)
structure (smiles),measurement,setting,value
CCOC(=O)c1nnc(SC)nc1SC,survivor count,"dose: 300.0 mg/kg/injection, schedule: Q01DX001 (ip), vehicle: alcohol",2 of 6
O=C(CCC(=O)OCCBr)OCCBr,survivor count,[1],5 of 6
Nc1cc(C(=O)Nc2ccc(C3=NCCN3)cc2)ccc1C(=O)Nc1ccc(C2=NCCN2)cc1,T/C,"dose: 1.1 mg/kg/injection, schedule: Q01DX Z (ip), vehicle: saline",125 [5 of 6 alive] and 126 % of control
same,T/C,"dose: 1.7 mg/kg/injection, schedule: Q01DX Z (ip), vehicle: saline",131 and 145 % of control
same,T/C,"dose: 2.5 mg/kg/injection, schedule: Q01DX Z (ip), vehicle: methylcellulose (MC)",130 % of control
same,T/C,"dose: 2.6 mg/kg/injection, schedule: Q01DX Z (ip), vehicle: saline",137 % of control
same,T/C,"dose: 4.0 mg/kg/injection, schedule: Q01DX Z (ip), vehicle: methylcellulose (MC)",127 % of control
same,T/C,"dose: 4.0 mg/kg/injection, schedule: Q01DX Z (ip), vehicle: saline",148 % of control
same,T/C,"dose: 6.0 mg/kg/injection, schedule: Q01DX Z (ip), vehicle: methylcellulose (MC)",130 % of control
same,T/C,"dose: 14.0 mg/kg/injection, schedule: Q01DX Z (ip), vehicle: methylcellulose (MC)",148 % of control [5 of 6 alive]
same,T/C,"dose: 22.5 mg/kg/injection, schedule: Q01DX015 (ip), vehicle: carboxymethylcellulose (CMC)",126 % of control
same,survivor count,"dose: 31.0 mg/kg/injection, schedule: Q01DX Z (ip), vehicle: methylcellulose (MC)",6 of 6
same,survivor count,"dose: 47.0 mg/kg/injection, schedule: Q01DX Z (ip), vehicle: methylcellulose (MC)",5 of 6
same,survivor count,"dose: 67.5 mg/kg/injection, schedule: Q01DX Z (ip), vehicle: carboxymethylcellulose (CMC)",3 of 6
CC1CC(C)(C)NC(=S)O1 (stereo not drawn),survivor count,"dose: 60.0 mg/kg/injection, schedule: Q01DX001 (ip), vehicle: carboxymethylcellulose (CMC)",1 of 6
same,survivor count,"dose: 75.0 mg/kg/injection, schedule: Q01DX001 (ip), vehicle: carboxymethylcellulose (CMC)",0 of 6
same,survivor count,"dose: 150.0 mg/kg/injection, schedule: Q01DX001 (ip), vehicle: carboxymethylcellulose (CMC)",0 of 6
same,survivor count,"dose: 300.0 mg/kg/injection, schedule: Q01DX001 (ip), vehicle: carboxymethylcellulose (CMC)",0 of 6
CCOC(=O)/C(C#N)=N/O,survivor count,"dose: 75.0 mg/kg/injection, schedule: Q01DX009 (ip), vehicle: saline",3 of 6
C=CCNC(=S)Nc1cc(Cl)ccc1C,survivor count,"dose: 400.0 mg/kg/injection, schedule: Q01DX009 (ip), vehicle: Klucel (hydroxypropylcellulose) (HPC)",0 of 6
NC(Cc1ccc(O)cc1)C(=O)N/N=C/c1ccc(N(CCCl)CCCl)cc1 (stereo not drawn),T/C,"dose: 200.0 mg/kg/injection, schedule: Q01DX009 (ip), vehicle: Klucel (hydroxypropylcellulose) (HPC)",128 % of control
same,T/C,[1],129 % of control
OC(c1cccc2ccccc12)c1c2ccccc2cc2ccccc12 (stereo not drawn),T/C,"dose: 200.0 mg/kg/injection, schedule: Q01DX009 (ip), vehicle: saline",126 % of control
Cc1cnc2cc(Cl)ccc2n1,survivor count,[1],6 of 6
CCCCN(Cl)CCCC,survivor count,"dose: 200.0 mg/kg/injection, schedule: Q04DX002 (ip), vehicle: saline + alcohol",0 of 3
same,survivor count,"dose: 400.0 mg/kg/injection, schedule: Q04DX002 (ip), vehicle: saline + alcohol",0 of 3
CCOc1ccc(/C=N/NC(=O)c2cccc3ccccc23)cc1OCC,survivor count,"dose: 200.0 mg/kg/injection, schedule: Q01DX001 (ip), vehicle: saline",4 of 4
CN1CCN(C(=O)Nc2ccc(N=Nc3ccccc3)cc2)CC1,survivor count,"dose: 100.0 mg/kg/injection, schedule: Q04DX003 (ip), vehicle: Klucel (hydroxypropylcellulose) (HPC)",6 of 6
same,survivor count,[1],3 of 6
CCOC(=O)c1ccc(C(=O)OCC)nc1,survivor count,"dose: 200.0 mg/kg/injection, schedule: Q01DX009 (ip), vehicle: saline with Tween-80",6 of 6
same,survivor count,"dose: 400.0 mg/kg/injection, schedule: Q01DX009 (ip), vehicle: saline with Tween-80",6 of 6
Cc1ccccc1SCN(CSc1ccccc1C)C(C)(C)CC(C)(C)C,survivor count,"dose: 200.0 mg/kg/injection, schedule: Q01DX001 (ip), vehicle: carboxymethylcellulose (CMC)",2 of 4
same,survivor count,"dose: 400.0 mg/kg/injection, schedule: Q01DX001 (ip), vehicle: carboxymethylcellulose (CMC)",0 of 4
